Data as given in patent US9075281B2, “Colored composition and image display structure” (FUJIFILM CORPORATION, priority 2011, dated 2015).

Test: Electrowetting test cell evaluation (responsiveness, back flow, OD value)
Conditions: dye concentration 20% by mass; for Area Contraction Ratio (%) / Response Time: DC 100V; for Area Contraction Ratio (%): 100% indicates a non-contracted state; for Response Time: time until most contracted state; for OD Value: at maximum absorption wavelength; for Back Flow Ratio (%): voltage-applied state maintained for 5 seconds
Experimental: A glass substrate (10 mm×10 mm) on which an indium tin oxide (ITO) film having a thickness of 100 nm was formed as a transparent electrode was prepared. On the surface of the ITO film, a fluoropolymer (tradename: CYTOP manufactured by Asahi Glass Co., Ltd., model CTL-809M) was coated in a thickness of 600 nm, thereby forming a fluoropolymer layer as a hydrophobic insulating film. Subsequently, a picture frame-shaped silicone rubber wall left after cutting out a 8 mm×8 mm×50 μm-sized piece from the central portion of a 1 cm×1 cm-sized silicone rubber (a sealing material having a thickness of 50 μm; SILIUS (tradename) manufactured by Fuso Rubber Co., Ltd.) was placed on the fluoropolymer layer, thereby forming a display area. A colored composition was injected, in a thickness of 4 μm, into the space enclosed by the silicone rubber wall. Onto the injected colored composition, ethyleneglycol (hydrophilic liquid) was further injected in a thickness of 46 μm. Another sheet of the glass plate equipped with the ITO film was further placed thereon such that the ITO film thereof faced the colored composition and the ethyleneglycol, and the glass plate was fixed. In this way, an electrowetting test cell having a structure illustrated in FIG. 1 was prepared.
A DC voltage of 100V was applied between the ITO films (transparent electrodes) of the two ITO-equipped glass substrates, such that a minus voltage was applied to the ITO electrode on a side on which the fluoropolymer layer (hydrophobic insulating film) was formed. In this state, the display cell (display cell 30 shown in FIG. 2) was observed, and it was confirmed that the colored composition moved on the surface of the fluoropolymer layer in one direction, and that the area of the region on the fluoropolymer layer that was covered by the colored composition decreased.
The responsiveness (the response time and the area contraction ratio described below) of the colored composition, and the extent of back flow phenomenon when the voltage-applied state was maintained (the back flow ratio described below) were evaluated.
The decrease of the area due to the voltage application was evaluated based on the area contraction ratio (%) calculated according to the following Equation (1). The extent of back flow phenomenon was evaluated based on the back flow ratio (%) calculated according to the following Equation (2). a) Response time [msec]=the time elapsed from the initiation of the voltage application until the colored composition reaches the most contracted state b) Area contraction ratio (%)=(the area of the colored composition in the most contracted state)/(the area of the colored composition before the voltage application)×100 (Equation (1)) c) Back flow ratio (%)=(the area of the colored composition when the voltage-applied state has been maintained for 5 seconds)/(the area of the colored composition in the most contracted state)×100 (Equation (2))
In regard to the OD value (image density), each dye was measured and evaluated with respect to OD value at its maximum absorption wavelength, using a spectral radiometer SR-3 manufactured by Topcon Technohouse Corporation.

Structure (SMILES) | Area Contraction Ratio (%) | Response Time | OD Value | Back Flow Ratio (%)
CCCCC(CC)CNC(=O)c1cc(N(CC(CC)CCCC)CC(CC)CCCC)ccc1/N=C1/C(CC)=Nn2nc(C(C)C)nc21 (centres unmarked) [D8-9] | 15 | less than 200 msec | 2.0 | 110
CCCCC(CC)CNC(=O)c1cc(N(CC(CC)CCCC)CC(CC)CCCC)ccc1/N=C1\C(C#N)=C(C(=O)OC2C(C(C)(C)C)CC(C)CC2C(C)(C)C)c2nc(C(C)(C)C)nn21 (centres unmarked) [D9-6] | 16 | less than 200 msec | 1.7 | 110
CCCCC(CC)COc1cc(N(CC(CC)CCCC)CC(CC)CCCC)ccc1N=C1C(=O)N(CC(CC)CCCC)N=C1C (centres unmarked) [D6-1] | 16 | less than 200 msec | 1.8 | 110
CCCCC(CC)CN(CC(CC)CCCC)c1ccc(/N=C2\C(C#N)=C(C(=O)OC3C(C(C)(C)C)CC(C)CC3C(C)(C)C)c3nc(C(C)(C)C)nn32)cc1 (centres unmarked) [D9-5] | 16 | less than 200 msec | 1.6 | 110
CCCCC(CC)CN(CC(CC)CCCC)c1ccc(C=C2C(=O)ON=C2C(C)CC)c(C)c1 (centres unmarked) [D1-1] | 18 | less than 200 msec | 1.3 | 130
